# Assay results taken from PubChem BioAssay AID1671190 (National Center for Advancing Translational Sciences (NCATS), 2021).
# Chains of the proteins cited; added tags and fusions are not shown. Lines headed by an entry give the natural chain unless they say otherwise; changes in a name come on top.
# UniProt P18054: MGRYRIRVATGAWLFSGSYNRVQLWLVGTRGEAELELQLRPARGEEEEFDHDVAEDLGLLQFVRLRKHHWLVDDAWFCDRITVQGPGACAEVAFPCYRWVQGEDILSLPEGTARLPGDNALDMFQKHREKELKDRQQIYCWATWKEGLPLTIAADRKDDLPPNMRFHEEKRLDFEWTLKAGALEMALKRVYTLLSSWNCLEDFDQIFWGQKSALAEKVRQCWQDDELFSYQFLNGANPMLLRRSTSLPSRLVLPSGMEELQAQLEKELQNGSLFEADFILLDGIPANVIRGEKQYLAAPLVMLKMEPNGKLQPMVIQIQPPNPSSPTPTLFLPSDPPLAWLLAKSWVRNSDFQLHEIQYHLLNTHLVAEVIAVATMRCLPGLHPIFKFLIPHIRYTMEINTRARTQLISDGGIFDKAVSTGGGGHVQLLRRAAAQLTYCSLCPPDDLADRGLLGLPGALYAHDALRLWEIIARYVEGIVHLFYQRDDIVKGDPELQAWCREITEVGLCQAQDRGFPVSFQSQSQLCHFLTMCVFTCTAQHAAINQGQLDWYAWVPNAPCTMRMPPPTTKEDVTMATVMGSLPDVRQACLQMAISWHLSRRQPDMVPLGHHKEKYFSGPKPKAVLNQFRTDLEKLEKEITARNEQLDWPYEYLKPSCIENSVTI
# Several values for one entry are separate records, joined by “and”; a condition that tells them apart may be missing. Equal values may be shown once. Hit rate of the full screen: of about 580,000 compounds, about 6,100 (1.1%) were called active. The inconclusive results got no clear call from the source; some entries with a clear call stand among them for comparison. Calls come from the whole dose curve; as a rule, active = well fitted inhibition curve with a large enough effect; inconclusive = small, poorly fitted or top-dose-only effect, or another doubt; inactive = no such curve, though single readings can be large or run the other way. A potency beside an inconclusive call is a rough fit, not a confirmed value.
# Molecular target: Polyunsaturated fatty acid lipoxygenase ALOX12 (Homo sapiens) (UniProt P18054)
# Experiment: Primary qHTS assay for inhibitors of human arachidonate 12S-lipoxygenase (ALOX12): Round 2
# Settings: purified 12hLO, xylenol orange hydroperoxide absorbance; activity change, negative = inhibition: at 108 µM (top of the series) unless noted
# How it was run: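 Hydroperoxide product was detected by ferrous iron/xylenol orange as the 573 to 405 nm absorbance ratio. Arachidonic acid at 40 uM (final) was turned over for 30 min at room temperature by 150 nM human 12hLO, pH 7.0 Hepes buffer, after 15 min compound preincubation.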
# % is set by controls: 0 for no effect and ±100 for the full control effect; potency is the fitted concentration of half-maximal effect.
SMILES,"activity change, negative = inhibition",Potency
CC(=O)Oc1cc2c3c(c1)/C(=C1/SC(=S)NC1=O)C(=O)N3C(C)(C)C=C2C,inactive: 34.6%,
O=C(OCc1nnc(-c2ccc(Br)cc2)o1)c1ccco1,,"inconclusive: 70.8 µM [inhibitor, single point]"
NC(=S)c1ccc(C(N)=S)o1,,"inconclusive: 39.8 µM [inhibitor, partial curve, poor fit]"
COc1ccccc1C1/C(=C(/O)c2ccccc2)C(=O)C(=O)N1CCO (stereo unspecified),,"inconclusive: 44.7 µM [inhibitor, partial curve]"
N[C@H](C(=O)O)c1ccc(C(=O)O)c(O)c1,,"inconclusive: 31.6 µM [inhibitor, single point]"
Cn1nc(C(C)(C)C)cc1C(=O)N1CCCCC1c1cc(C(=O)Nc2cccc3c2CCCC3)no1 (stereo unspecified),,"inconclusive: 28.2 µM [inhibitor, single point]"
C=CCCC(CN1CCSCC1)Oc1ncc(C)c(N(C)C)n1 (stereo unspecified),inactive: 15.1%,
CCN1CCN(S(=O)(=O)c2ccc(S(=O)(=O)NC3CC3)cc2)CC1,,"inconclusive: 44.7 µM [inhibitor, partial curve, poor fit]"
CC(=O)Nc1cccc(OCCCNC(=O)c2ccc(F)cc2)c1,,"inconclusive: 100 µM [inhibitor, partial curve, poor fit]"
Cc1cccc(C(=O)N(C)C2CCN(CCc3ccccn3)CC2)c1,inactive: -0.771%,
Cc1ccc(CNC(=O)CCc2ccc(S(=O)(=O)NC3CCCCC3)cc2)cc1,inactive: 75.2%,
CCc1cccc2c(C(=O)CN3C(=O)NC(C)(c4ccc5c(c4)OCCO5)C3=O)c[nH]c12 (stereo unspecified),inactive: -14.7%,
CCOc1ccc(CCNC(=O)c2cc(Nc3ccc(C)cc3C)nc3ccccc23)cc1OCC,,"inconclusive: 112 µM [inhibitor, partial curve, poor fit]"
CC1(C)CC(=O)c2sc(NS(=O)(=O)c3ccc(Cl)cc3)nc2C1,,"inconclusive: 79.4 µM [inhibitor, partial curve, poor fit]"
O=C(CNc1cccc([N+](=O)[O-])c1)NC(=O)NC1CCCCC1,inactive: -51.6%,
CC(Sc1nnc(-c2cccnc2)n1C)C(=O)N1CCOCC1 (stereo unspecified),,"inconclusive: 79.4 µM [inhibitor, single point]"
COc1ccc(Nc2nnc(SC(C(=O)Nc3cc(C)ccc3C)c3ccccc3)s2)cc1 (stereo unspecified),,"inconclusive: 39.8 µM [inhibitor, partial curve]"
CC(=O)C1=C(c2ccccc2)NC(=S)NC1c1ccc(O)c(O)c1 (stereo unspecified),,"inconclusive: 50.1 µM [inhibitor, partial curve, poor fit]"
Cc1ccc(NS(=O)(=O)c2ccc(NN)c([N+](=O)[O-])c2)c(C)c1,,"inconclusive: 14.1 µM [inhibitor, partial curve, poor fit]"
Cc1nn2c(c1-c1ccccc1OCc1ccccc1)N(C(=O)Cc1ccc3c(c1)OCO3)CCC2,inactive: -5.09%,
CN1CCCN(C(=O)c2ccccc2F)c2ccccc21,,"inconclusive: 35.5 µM [inhibitor, partial curve, poor fit]"

# Gathered by group, the compounds so far containing sulfur (ten)
SMILES,"activity change, negative = inhibition",Potency
CC(=O)Oc1cc2c3c(c1)/C(=C1/SC(=S)NC1=O)C(=O)N3C(C)(C)C=C2C,inactive: 34.6%,
NC(=S)c1ccc(C(N)=S)o1,,"inconclusive: 39.8 µM [inhibitor, partial curve, poor fit]"
C=CCCC(CN1CCSCC1)Oc1ncc(C)c(N(C)C)n1 (stereo unspecified),inactive: 15.1%,
CCN1CCN(S(=O)(=O)c2ccc(S(=O)(=O)NC3CC3)cc2)CC1,,"inconclusive: 44.7 µM [inhibitor, partial curve, poor fit]"
Cc1ccc(CNC(=O)CCc2ccc(S(=O)(=O)NC3CCCCC3)cc2)cc1,inactive: 75.2%,
CC1(C)CC(=O)c2sc(NS(=O)(=O)c3ccc(Cl)cc3)nc2C1,,"inconclusive: 79.4 µM [inhibitor, partial curve, poor fit]"
CC(Sc1nnc(-c2cccnc2)n1C)C(=O)N1CCOCC1 (stereo unspecified),,"inconclusive: 79.4 µM [inhibitor, single point]"
COc1ccc(Nc2nnc(SC(C(=O)Nc3cc(C)ccc3C)c3ccccc3)s2)cc1 (stereo unspecified),,"inconclusive: 39.8 µM [inhibitor, partial curve]"
CC(=O)C1=C(c2ccccc2)NC(=S)NC1c1ccc(O)c(O)c1 (stereo unspecified),,"inconclusive: 50.1 µM [inhibitor, partial curve, poor fit]"
Cc1ccc(NS(=O)(=O)c2ccc(NN)c([N+](=O)[O-])c2)c(C)c1,,"inconclusive: 14.1 µM [inhibitor, partial curve, poor fit]"

# Later entries:

SMILES,"activity change, negative = inhibition",Potency
C=COC(=O)NC1CCc2cc(OC)c(OC)c(OC)c2-c2ccc(SC)c(=O)cc21 (stereo unspecified),,"inconclusive: 44.7 µM [inhibitor, partial curve]"
CCCCN(CC)Cc1ccc(CNS(=O)(=O)c2cc3c(cc2Cl)NC(=O)CO3)o1,,"inconclusive: 126 µM [inhibitor, single point]"
O=c1cc(N2CCOCC2)oc2c(-c3ccccc3)cccc12,,"inconclusive: 22.4 µM [inhibitor, partial curve, poor fit]"
COc1ccccc1-c1nc(C(=O)N(C)C)n2ccncc12,,"inconclusive: 11.2 µM [inhibitor, full curve, poor fit]"
O=C(c1cccs1)N1Cc2[nH]cnc2C[C@H]1c1nc(-c2ccc3ccccc3c2)no1,,"inconclusive: 50.1 µM [inhibitor, full curve, poor fit]"
O=[S+]1([O-])NC2(CCN(Cc3cccc4ccccc34)C2)CNc2ccccc21 (stereo unspecified),,"inconclusive: 17.8 µM [inhibitor, full curve]"
CCN1C(=O)[C@H]2[C@@H](c3ccc(C)cc3)N3C(=O)N(c4cccc(Br)c4)C(=O)[C@@]3(C)[C@H]2C1=O,inactive: -1.48%,
COc1ccc(-n2c(Cc3cc(=O)[nH]c(=O)[nH]3)nnc2SCC(=O)NC2CCCC2)cc1,,"inconclusive: 28.2 µM [inhibitor, partial curve, poor fit]"
CCNc1c(NC(=O)NCc2ccccc2)c(=O)oc2ccccc12,inactive: -13.1%,
CCOc1cccc2sc(N(CCCN(C)C)C(=O)c3ccc(C(=O)c4ccccc4)cc3)nc12,,"inconclusive: 44.7 µM [inhibitor, partial curve, poor fit]"
NS(=O)(=O)c1ccc(N2N=C(c3ccccc3)CC2c2ccccc2Cl)cc1 (stereo unspecified),inactive: -8.34%,
Cc1ccc([N+](=O)[O-])cc1NC(=S)NC(=O)CC(C)(C)C,,"inconclusive: 35.5 µM [inhibitor, partial curve]"
COc1ccc(CC(=O)N2CCc3cc(OC)c(OC)cc3C2)cc1,,"inconclusive: 126 µM [inhibitor, single point]"
CC(C)(C)c1nc2cc(NC(=O)c3cc[n+]([O-])cc3)ccc2o1,inactive: 2.41%,
CN(C)CCN(C)Cc1c2ccccc2c(CN(C)CCN(C)C)c2ccccc12,,"inconclusive: 44.7 µM [inhibitor, single point]"
COc1cc(CN2CCN(S(=O)(=O)c3ccc(F)cc3)CC2)cc(OC)c1OC,,"inconclusive: 1.41 µM [inhibitor, full curve] and inconclusive: 447 nM [inhibitor, full curve, poor fit]"
COc1ccc(CCN2C(=O)CN(C3CCCCCC3)C(=O)C2c2ccc(C)cc2)cc1OC (stereo unspecified),inconclusive: -33.2% [inhibitor],
COC(=O)c1cccc2c1-c1ccccc1C2=O,,"inconclusive: 44.7 µM [inhibitor, partial curve, poor fit]"
Cc1[nH]c2ccccc2c1/C=C(\C#N)C(=O)NC(C)c1ccccc1 (stereo unspecified),,active: 7.08 µM
O=C(N/N=C\c1cc(Br)cs1)c1ccncc1,,"inconclusive: 6.31 µM [inhibitor, partial curve, poor fit]"
